We go through 37 targets from the supplement of paper PMC12067093, “Discovery and optimisation of a covalent ligand for TRIM25 and its application to targeted protein ubiquitination” (Chemical Science, 2025).

The chains behind the UniProt entries cited, without tags or fusion partners. Where a name states a change or a piece, a line headed by the entry shows the natural chain unless it says otherwise.
UniProt Q13011: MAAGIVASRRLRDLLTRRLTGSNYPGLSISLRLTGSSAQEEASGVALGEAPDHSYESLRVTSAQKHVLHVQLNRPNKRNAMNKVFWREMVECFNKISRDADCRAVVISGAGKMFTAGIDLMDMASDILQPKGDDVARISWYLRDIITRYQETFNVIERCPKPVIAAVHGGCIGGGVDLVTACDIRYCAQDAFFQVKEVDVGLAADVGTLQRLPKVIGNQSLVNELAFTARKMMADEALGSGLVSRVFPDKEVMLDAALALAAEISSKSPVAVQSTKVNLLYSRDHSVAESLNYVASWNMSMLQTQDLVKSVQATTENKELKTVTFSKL
UniProt P05198, whole entry, looked up: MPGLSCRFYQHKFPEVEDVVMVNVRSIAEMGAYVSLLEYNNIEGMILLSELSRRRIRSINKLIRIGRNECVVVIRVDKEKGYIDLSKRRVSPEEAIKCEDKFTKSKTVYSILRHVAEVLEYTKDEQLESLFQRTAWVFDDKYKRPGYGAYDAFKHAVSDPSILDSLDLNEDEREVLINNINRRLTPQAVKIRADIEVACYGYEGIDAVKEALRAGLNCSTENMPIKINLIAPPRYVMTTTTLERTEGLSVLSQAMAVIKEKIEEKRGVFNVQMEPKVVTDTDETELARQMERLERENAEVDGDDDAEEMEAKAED
UniProt Q15029: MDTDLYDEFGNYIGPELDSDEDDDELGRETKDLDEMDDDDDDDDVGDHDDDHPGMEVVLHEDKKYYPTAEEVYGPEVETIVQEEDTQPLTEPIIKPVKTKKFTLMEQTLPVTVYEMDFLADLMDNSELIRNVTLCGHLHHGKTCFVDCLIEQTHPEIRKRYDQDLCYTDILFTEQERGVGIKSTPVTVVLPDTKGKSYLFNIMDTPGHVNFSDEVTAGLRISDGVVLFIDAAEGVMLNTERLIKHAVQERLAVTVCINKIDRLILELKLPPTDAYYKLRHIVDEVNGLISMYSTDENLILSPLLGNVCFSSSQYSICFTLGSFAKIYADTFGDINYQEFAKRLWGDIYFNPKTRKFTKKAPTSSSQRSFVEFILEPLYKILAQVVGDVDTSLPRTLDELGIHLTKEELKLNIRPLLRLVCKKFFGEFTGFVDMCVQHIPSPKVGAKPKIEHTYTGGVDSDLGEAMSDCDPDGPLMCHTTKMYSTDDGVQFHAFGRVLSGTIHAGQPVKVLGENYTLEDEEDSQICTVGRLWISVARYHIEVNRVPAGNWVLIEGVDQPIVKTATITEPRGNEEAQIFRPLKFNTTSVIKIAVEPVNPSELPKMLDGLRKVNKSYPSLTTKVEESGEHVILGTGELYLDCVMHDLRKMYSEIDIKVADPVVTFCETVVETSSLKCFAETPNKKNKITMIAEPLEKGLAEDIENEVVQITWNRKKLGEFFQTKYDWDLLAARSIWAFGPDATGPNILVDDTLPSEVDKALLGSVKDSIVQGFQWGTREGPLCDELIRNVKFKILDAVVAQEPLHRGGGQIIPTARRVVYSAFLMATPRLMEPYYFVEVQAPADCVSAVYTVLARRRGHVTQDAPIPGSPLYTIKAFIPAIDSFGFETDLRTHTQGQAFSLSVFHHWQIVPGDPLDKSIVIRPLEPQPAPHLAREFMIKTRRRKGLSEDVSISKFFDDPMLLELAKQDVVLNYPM
UniProt P30084: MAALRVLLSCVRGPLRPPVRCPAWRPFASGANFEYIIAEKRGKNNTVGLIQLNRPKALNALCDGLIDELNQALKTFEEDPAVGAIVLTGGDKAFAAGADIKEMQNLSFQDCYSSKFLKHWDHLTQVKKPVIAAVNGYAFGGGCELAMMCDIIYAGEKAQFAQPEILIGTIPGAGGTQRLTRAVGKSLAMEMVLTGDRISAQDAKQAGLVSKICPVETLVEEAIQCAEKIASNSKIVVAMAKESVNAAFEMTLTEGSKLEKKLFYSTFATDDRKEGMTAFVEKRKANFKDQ
UniProt Q7Z2Z2: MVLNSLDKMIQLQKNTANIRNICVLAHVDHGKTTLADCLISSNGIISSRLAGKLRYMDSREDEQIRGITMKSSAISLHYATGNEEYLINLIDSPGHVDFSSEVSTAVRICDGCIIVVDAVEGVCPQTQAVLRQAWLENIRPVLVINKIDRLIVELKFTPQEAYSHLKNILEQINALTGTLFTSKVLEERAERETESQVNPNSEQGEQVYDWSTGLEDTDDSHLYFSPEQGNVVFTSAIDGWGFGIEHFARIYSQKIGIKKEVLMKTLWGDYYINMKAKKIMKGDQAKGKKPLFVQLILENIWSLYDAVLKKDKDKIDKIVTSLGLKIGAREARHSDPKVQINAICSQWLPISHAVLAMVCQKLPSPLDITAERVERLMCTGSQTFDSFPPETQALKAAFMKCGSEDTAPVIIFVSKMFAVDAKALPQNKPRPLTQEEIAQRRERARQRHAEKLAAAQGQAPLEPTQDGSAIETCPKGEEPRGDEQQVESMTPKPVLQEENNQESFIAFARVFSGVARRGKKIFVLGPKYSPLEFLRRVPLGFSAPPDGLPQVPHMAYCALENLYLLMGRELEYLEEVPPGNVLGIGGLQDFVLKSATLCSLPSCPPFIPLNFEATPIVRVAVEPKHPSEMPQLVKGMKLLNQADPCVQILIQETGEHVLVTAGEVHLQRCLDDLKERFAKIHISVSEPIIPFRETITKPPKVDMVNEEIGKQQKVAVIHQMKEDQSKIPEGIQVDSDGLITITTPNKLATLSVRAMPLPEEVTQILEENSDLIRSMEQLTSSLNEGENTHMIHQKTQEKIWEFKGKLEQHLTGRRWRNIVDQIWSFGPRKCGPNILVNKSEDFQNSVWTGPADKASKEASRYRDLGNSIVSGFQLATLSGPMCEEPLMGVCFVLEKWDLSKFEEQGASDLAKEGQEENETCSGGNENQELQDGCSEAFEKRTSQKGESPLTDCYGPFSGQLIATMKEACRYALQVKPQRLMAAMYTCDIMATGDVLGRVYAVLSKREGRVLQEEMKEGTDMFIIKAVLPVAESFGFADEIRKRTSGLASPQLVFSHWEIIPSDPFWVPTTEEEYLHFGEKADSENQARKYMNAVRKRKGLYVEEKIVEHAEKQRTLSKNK
UniProt P26641, whole entry, looked up: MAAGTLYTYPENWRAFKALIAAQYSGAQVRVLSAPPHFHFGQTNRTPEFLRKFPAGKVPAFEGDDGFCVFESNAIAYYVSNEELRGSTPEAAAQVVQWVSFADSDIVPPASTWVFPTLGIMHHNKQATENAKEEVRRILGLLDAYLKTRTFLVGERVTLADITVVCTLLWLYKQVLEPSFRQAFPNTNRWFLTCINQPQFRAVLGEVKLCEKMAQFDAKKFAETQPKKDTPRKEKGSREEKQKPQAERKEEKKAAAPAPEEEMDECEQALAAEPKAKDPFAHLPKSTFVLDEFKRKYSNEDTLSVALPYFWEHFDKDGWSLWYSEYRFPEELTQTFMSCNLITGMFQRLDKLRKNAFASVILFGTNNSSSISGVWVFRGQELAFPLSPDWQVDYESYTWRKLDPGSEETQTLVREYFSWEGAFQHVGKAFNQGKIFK
UniProt P41091, whole entry, looked up: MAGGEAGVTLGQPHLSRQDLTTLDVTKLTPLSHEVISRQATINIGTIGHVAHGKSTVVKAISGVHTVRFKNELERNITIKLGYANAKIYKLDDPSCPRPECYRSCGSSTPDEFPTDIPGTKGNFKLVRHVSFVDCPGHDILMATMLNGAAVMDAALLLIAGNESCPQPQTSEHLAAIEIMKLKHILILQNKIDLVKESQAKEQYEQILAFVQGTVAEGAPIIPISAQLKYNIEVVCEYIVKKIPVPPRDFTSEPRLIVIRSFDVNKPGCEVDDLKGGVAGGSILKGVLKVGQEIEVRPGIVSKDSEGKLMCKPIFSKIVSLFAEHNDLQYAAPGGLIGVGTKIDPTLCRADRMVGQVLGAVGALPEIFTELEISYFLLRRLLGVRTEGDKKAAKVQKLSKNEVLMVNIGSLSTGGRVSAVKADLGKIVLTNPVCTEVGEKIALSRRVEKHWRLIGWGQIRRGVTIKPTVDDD
UniProt P47813, whole entry, looked up: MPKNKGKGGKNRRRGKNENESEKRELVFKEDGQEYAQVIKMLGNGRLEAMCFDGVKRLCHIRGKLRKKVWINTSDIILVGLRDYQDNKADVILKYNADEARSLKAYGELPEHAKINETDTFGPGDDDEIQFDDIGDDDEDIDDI
UniProt O95905: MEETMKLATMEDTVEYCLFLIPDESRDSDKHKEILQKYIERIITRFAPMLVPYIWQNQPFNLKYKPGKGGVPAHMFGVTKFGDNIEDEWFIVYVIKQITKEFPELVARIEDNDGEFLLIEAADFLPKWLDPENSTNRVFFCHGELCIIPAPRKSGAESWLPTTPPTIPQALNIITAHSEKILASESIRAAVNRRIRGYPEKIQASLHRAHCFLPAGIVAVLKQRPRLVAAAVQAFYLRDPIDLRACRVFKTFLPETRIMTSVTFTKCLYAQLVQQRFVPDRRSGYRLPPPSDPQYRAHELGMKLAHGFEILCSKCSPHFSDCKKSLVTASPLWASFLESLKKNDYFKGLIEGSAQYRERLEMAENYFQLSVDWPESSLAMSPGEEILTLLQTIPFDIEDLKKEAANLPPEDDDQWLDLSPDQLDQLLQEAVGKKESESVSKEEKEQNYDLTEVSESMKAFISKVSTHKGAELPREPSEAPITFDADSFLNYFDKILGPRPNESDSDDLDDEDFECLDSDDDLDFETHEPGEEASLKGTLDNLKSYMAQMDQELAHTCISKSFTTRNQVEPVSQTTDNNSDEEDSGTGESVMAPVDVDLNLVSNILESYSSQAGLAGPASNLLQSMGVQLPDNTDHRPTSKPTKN
UniProt Q96KQ7: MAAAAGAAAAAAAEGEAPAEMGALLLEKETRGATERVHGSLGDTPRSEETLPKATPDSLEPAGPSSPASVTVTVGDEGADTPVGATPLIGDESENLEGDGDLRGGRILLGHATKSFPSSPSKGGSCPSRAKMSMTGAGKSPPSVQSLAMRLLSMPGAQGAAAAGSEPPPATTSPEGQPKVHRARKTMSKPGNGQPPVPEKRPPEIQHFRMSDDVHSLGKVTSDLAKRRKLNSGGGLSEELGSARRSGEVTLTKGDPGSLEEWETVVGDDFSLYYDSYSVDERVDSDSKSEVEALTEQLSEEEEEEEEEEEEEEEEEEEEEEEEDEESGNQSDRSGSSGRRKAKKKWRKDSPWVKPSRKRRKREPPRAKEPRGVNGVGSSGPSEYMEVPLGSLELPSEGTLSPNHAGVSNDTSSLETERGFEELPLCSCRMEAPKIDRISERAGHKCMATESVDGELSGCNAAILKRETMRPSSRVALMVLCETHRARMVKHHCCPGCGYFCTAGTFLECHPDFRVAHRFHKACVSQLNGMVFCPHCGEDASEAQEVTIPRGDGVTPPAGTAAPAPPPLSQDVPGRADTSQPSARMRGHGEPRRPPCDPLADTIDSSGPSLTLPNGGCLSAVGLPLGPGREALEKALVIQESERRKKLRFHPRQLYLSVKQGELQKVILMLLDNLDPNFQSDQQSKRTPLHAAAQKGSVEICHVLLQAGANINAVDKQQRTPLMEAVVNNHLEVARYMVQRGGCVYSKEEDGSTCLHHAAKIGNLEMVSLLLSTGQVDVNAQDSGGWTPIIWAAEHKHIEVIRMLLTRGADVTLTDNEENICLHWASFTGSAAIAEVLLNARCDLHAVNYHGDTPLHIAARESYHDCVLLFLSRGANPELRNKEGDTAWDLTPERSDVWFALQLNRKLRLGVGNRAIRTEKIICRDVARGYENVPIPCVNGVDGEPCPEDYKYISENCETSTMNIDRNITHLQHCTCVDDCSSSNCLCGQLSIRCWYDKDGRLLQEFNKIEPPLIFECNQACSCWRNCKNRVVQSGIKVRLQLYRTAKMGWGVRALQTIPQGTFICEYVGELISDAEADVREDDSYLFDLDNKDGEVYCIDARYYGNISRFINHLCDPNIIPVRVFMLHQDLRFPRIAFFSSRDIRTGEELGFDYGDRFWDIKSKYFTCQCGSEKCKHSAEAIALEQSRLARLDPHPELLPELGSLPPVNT
UniProt Q05639, whole entry, looked up: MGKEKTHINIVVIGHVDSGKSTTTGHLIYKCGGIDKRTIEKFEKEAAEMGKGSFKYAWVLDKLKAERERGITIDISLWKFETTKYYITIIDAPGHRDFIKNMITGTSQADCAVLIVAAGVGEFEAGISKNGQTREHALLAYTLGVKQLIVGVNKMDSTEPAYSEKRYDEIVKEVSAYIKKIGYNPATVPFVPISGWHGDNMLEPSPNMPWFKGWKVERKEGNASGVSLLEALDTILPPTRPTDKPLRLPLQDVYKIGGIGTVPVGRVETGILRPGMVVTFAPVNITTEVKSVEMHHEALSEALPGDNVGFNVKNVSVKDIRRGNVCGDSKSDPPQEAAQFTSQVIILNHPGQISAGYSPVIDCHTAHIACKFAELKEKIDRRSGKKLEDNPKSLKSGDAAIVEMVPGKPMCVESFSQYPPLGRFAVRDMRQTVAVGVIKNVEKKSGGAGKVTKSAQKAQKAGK

This is one part of the list.
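Also: competitive chemoproteomic profiling in live THP-1 cells with an iodoacetamide desthiobiotin (IA-DTB) probe, comparing probe-labelled peptide intensities in compound-treated cells against DMSO-treated controls.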

Compound in one test: CC1Cc2ccccc2N1C(=O)C1CCCN(C1)C(=O)CCl (mixture of isomers) [TRIM25 ligand 11 (diastereomer mixture)]
Description: probe-labelled cysteine peptide fold change vs DMSO (competition) (log2 fold change); higher = less target engagement (more negative = stronger competition). As to conditions: 10 µM; THP-1; incubation time: 4 h.
For “EEF1A1_P68104_370_GNVAGDSKNDPPMEAAGFTAQVIILNHPGQISAGYAPVLDCHTAHIACK (UniProt P68104)”, the “probe-labelled cysteine peptide fold change” value was -0.346.

As to “EFHD2_Q96C19_172_KAAAGELQEDSGLCVLAR (UniProt Q96C19)”, the “probe-labelled cysteine peptide fold change” value is -0.186.

For “ECH1_Q13011_182_CPKPVIAAVHGGCIGGGVDLVTACDIR (UniProt Q13011)”, the “probe-labelled cysteine peptide fold change” value was -0.0944.

As to “EIF2S1_P05198_218_AGLNCSTENMPIK (UniProt P05198)”, the “probe-labelled cysteine peptide fold change” value was -0.0983.

“EFTUD2_Q15029_166_YDQDLCYTDILFTEQER (UniProt Q15029)”: the “probe-labelled cysteine peptide fold change” value is -0.0633.

“ECHS1_P30084_62_ALNALCDGLIDELNQALK (UniProt P30084)”: the “probe-labelled cysteine peptide fold change” value worked out at 0.133.

Take “EEF1A1_P68104_234_KDGNASGTTLLEALDCILPPTRPTDKPLR (UniProt P68104)”: the “probe-labelled cysteine peptide fold change” value was -0.271.

Consider “EDC3_Q96F86_353_GAQGISCGR (UniProt Q96F86)”, for which the “probe-labelled cysteine peptide fold change” value was -0.071.

Regarding “ECI2_O75521_368_LHAVNAEECNVLQGR (UniProt O75521)”, the “probe-labelled cysteine peptide fold change” value is -0.122.

“EIF2A_Q9BY44_366_PVASDSTYFAWCPDGEHILTATCAPR (UniProt Q9BY44)”: the “probe-labelled cysteine peptide fold change” value is 0.182.

For the target “EFTUD2_Q15029_148_TCFVDCLIEQTHPEIR (UniProt Q15029)”, the “probe-labelled cysteine peptide fold change” value worked out at 0.0976.

Turning to “EFL1_Q7Z2Z2_831_CGPNILVNK (UniProt Q7Z2Z2)”, the “probe-labelled cysteine peptide fold change” value was -0.187.

With “EEF1G_P26641_266_KAAAPAPEEEMDECEQALAAEPK (UniProt P26641)”, the “probe-labelled cysteine peptide fold change” value was -0.276.

For “EIF2S3_P41091_311_LMCKPIFSK (UniProt P41091)”, the “probe-labelled cysteine peptide fold change” value is -0.491.

On to “EEF2_P13639_693_EGALCEENMR (UniProt P13639)”, for which the “probe-labelled cysteine peptide fold change” value is -0.0377.

Regarding “EHHADH_Q08426_227+233_QHPGCLAQEACVR (UniProt Q08426)”, the “probe-labelled cysteine peptide fold change” value is 0.147.

Take “EIF1AX_P47813_51_LEAMCFDGVK (UniProt P47813)”: the “probe-labelled cysteine peptide fold change” value was 0.0748.

With “ECD_O95905_267_CLYAQLVQQR (UniProt O95905)”, the “probe-labelled cysteine peptide fold change” value is -0.0292.

Take “EEF2_P13639_728_CLYASVLTAQPR (UniProt P13639)”: the “probe-labelled cysteine peptide fold change” value was -0.0594.

With “EIF2S1_P05198_98_VSPEEAIKCEDK (UniProt P05198)”, the “probe-labelled cysteine peptide fold change” value is -0.364.

Consider “EEF1D_P29692_247_KLQIQCVVEDDKVGTDLLEEEITKFEEHVQSVDIAAFNK (UniProt P29692)”, for which the “probe-labelled cysteine peptide fold change” value is -0.126.

For the target “EHMT2_Q96KQ7_1115_FINHLCDPNIIPVR (UniProt Q96KQ7)”, the “probe-labelled cysteine peptide fold change” value was found to be 0.137.

On to “EEF1A2_Q05639_411_SGDAAIVEMVPGKPMCVESFSQYPPLGR (UniProt Q05639)”, for which the “probe-labelled cysteine peptide fold change” value was -0.0284.

As to “EEF2_P13639_567_DLEEDHACIPIKK (UniProt P13639)”, the “probe-labelled cysteine peptide fold change” value is -0.0433.

For “EIF2B3_Q9NR50_206_FHTGLVDAHLYCLKK (UniProt Q9NR50)”, the “probe-labelled cysteine peptide fold change” value is -0.323.

In the case of “ECHDC1_Q9NTX5_133_SLGTPEDGMAVCMFMQNTLTR (UniProt Q9NTX5)”, the “probe-labelled cysteine peptide fold change” value is 0.0217.

For the target “EIF2S3_P41091_96+101_LDDPSCPRPECYR (UniProt P41091)”, the “probe-labelled cysteine peptide fold change” value was found to be 0.0209.

As to “EEF1A1_P68104_411_SGDAAIVDMVPGKPMCVESFSDYPPLGR (UniProt P68104)”, the “probe-labelled cysteine peptide fold change” value was -0.107.

As for “EHMT1_Q9H9B1_1203_FINHHCEPNLVPVR (UniProt Q9H9B1)”, the “probe-labelled cysteine peptide fold change” value was -0.00325.

Consider “EIF2D_P41214_386_EQPYHPPDIKPLYCVPASMTLLFQESGHK (UniProt P41214)”, for which the “probe-labelled cysteine peptide fold change” value was -0.225.

In the case of “EHMT1_Q9H9B1_575_APLLVLCEDHR (UniProt Q9H9B1)”, the “probe-labelled cysteine peptide fold change” value came to 0.0485.

As for “EEF2_P13639_751_LMEPIYLVEIQCPEQVVGGIYGVLNR (UniProt P13639)”, the “probe-labelled cysteine peptide fold change” value was -0.0478.

As to “EEFSEC_P57772_442_LDADIHTNTCR (UniProt P57772)”, the “probe-labelled cysteine peptide fold change” value is -0.0126.

On to “EHMT1_Q9H9B1_954_ENRYDCVVLFLSR (UniProt Q9H9B1)”, for which the “probe-labelled cysteine peptide fold change” value is -0.0485.

On to “EEF1G_P26641_194_WFLTCINQPQFR (UniProt P26641)”, for which the “probe-labelled cysteine peptide fold change” value was -0.0063.

In the case of “EFL1_Q7Z2Z2_23_NICVLAHVDHGK (UniProt Q7Z2Z2)”, the “probe-labelled cysteine peptide fold change” value stood at 0.0489.

In the case of “EIF2S2_P20042_226_KTSFVNFTDICK (UniProt P20042)”, the “probe-labelled cysteine peptide fold change” value was -0.15.

Still in this test, the particulars now being: 50 µM; THP-1; incubation time: 4 h.
Consider “EEF1A1_P68104_370_GNVAGDSKNDPPMEAAGFTAQVIILNHPGQISAGYAPVLDCHTAHIACK (UniProt P68104)”, for which the “probe-labelled cysteine peptide fold change” value is -0.402.

In the case of “EFHD2_Q96C19_172_KAAAGELQEDSGLCVLAR (UniProt Q96C19)”, the “probe-labelled cysteine peptide fold change” value was -0.399.

As for “ECH1_Q13011_182_CPKPVIAAVHGGCIGGGVDLVTACDIR (UniProt Q13011)”, the “probe-labelled cysteine peptide fold change” value was -0.0748.

In the case of “EIF2S1_P05198_218_AGLNCSTENMPIK (UniProt P05198)”, the “probe-labelled cysteine peptide fold change” value is -0.174.

Regarding “EFTUD2_Q15029_166_YDQDLCYTDILFTEQER (UniProt Q15029)”, the “probe-labelled cysteine peptide fold change” value was -0.262.

In the case of “ECHS1_P30084_62_ALNALCDGLIDELNQALK (UniProt P30084)”, the “probe-labelled cysteine peptide fold change” value worked out at 0.203.

As for “EEF1A1_P68104_234_KDGNASGTTLLEALDCILPPTRPTDKPLR (UniProt P68104)”, the “probe-labelled cysteine peptide fold change” value was -0.439.

Consider “EDC3_Q96F86_353_GAQGISCGR (UniProt Q96F86)”, for which the “probe-labelled cysteine peptide fold change” value turned out to be 0.0418.

Regarding “ECI2_O75521_368_LHAVNAEECNVLQGR (UniProt O75521)”, the “probe-labelled cysteine peptide fold change” value was -0.229.

In the case of “EIF2A_Q9BY44_366_PVASDSTYFAWCPDGEHILTATCAPR (UniProt Q9BY44)”, the “probe-labelled cysteine peptide fold change” value stood at 0.316.

As for “EFTUD2_Q15029_148_TCFVDCLIEQTHPEIR (UniProt Q15029)”, the “probe-labelled cysteine peptide fold change” value turned out to be 0.00619.

On to “EFL1_Q7Z2Z2_831_CGPNILVNK (UniProt Q7Z2Z2)”, for which the “probe-labelled cysteine peptide fold change” value is -0.0156.

As for “EEF1G_P26641_266_KAAAPAPEEEMDECEQALAAEPK (UniProt P26641)”, the “probe-labelled cysteine peptide fold change” value was -0.245.

As to “EIF2S3_P41091_311_LMCKPIFSK (UniProt P41091)”, the “probe-labelled cysteine peptide fold change” value was -0.529.

For the target “EEF2_P13639_693_EGALCEENMR (UniProt P13639)”, the “probe-labelled cysteine peptide fold change” value was -0.115.

As for “EHHADH_Q08426_227+233_QHPGCLAQEACVR (UniProt Q08426)”, the “probe-labelled cysteine peptide fold change” value is 0.0162.

As to “EIF1AX_P47813_51_LEAMCFDGVK (UniProt P47813)”, the “probe-labelled cysteine peptide fold change” value turned out to be 0.0336.

“ECD_O95905_267_CLYAQLVQQR (UniProt O95905)”: the “probe-labelled cysteine peptide fold change” value was -0.11.

Regarding “EEF2_P13639_728_CLYASVLTAQPR (UniProt P13639)”, the “probe-labelled cysteine peptide fold change” value was -0.0645.

On to “EIF2S1_P05198_98_VSPEEAIKCEDK (UniProt P05198)”, for which the “probe-labelled cysteine peptide fold change” value was -0.281.

With “EEF1D_P29692_247_KLQIQCVVEDDKVGTDLLEEEITKFEEHVQSVDIAAFNK (UniProt P29692)”, the “probe-labelled cysteine peptide fold change” value was -0.0964.

Regarding “EHMT2_Q96KQ7_1115_FINHLCDPNIIPVR (UniProt Q96KQ7)”, the “probe-labelled cysteine peptide fold change” value was determined as 0.316.

Turning to “EEF1A2_Q05639_411_SGDAAIVEMVPGKPMCVESFSQYPPLGR (UniProt Q05639)”, the “probe-labelled cysteine peptide fold change” value is -0.134.

“EEF2_P13639_567_DLEEDHACIPIKK (UniProt P13639)”: the “probe-labelled cysteine peptide fold change” value is -0.172.

Regarding “EIF2B3_Q9NR50_206_FHTGLVDAHLYCLKK (UniProt Q9NR50)”, the “probe-labelled cysteine peptide fold change” value was -0.0666.

Take “ECHDC1_Q9NTX5_133_SLGTPEDGMAVCMFMQNTLTR (UniProt Q9NTX5)”: the “probe-labelled cysteine peptide fold change” value was 0.0214.

“EIF2S3_P41091_96+101_LDDPSCPRPECYR (UniProt P41091)”: the “probe-labelled cysteine peptide fold change” value was -0.104.

As to “EEF1A1_P68104_411_SGDAAIVDMVPGKPMCVESFSDYPPLGR (UniProt P68104)”, the “probe-labelled cysteine peptide fold change” value is -0.29.

Regarding “EHMT1_Q9H9B1_1203_FINHHCEPNLVPVR (UniProt Q9H9B1)”, the “probe-labelled cysteine peptide fold change” value worked out at 0.177.

Take “EIF2D_P41214_386_EQPYHPPDIKPLYCVPASMTLLFQESGHK (UniProt P41214)”: the “probe-labelled cysteine peptide fold change” value was -0.35.

In the case of “EHMT1_Q9H9B1_575_APLLVLCEDHR (UniProt Q9H9B1)”, the “probe-labelled cysteine peptide fold change” value is -0.0116.

On to “EEF2_P13639_751_LMEPIYLVEIQCPEQVVGGIYGVLNR (UniProt P13639)”, for which the “probe-labelled cysteine peptide fold change” value was -0.149.

“EEFSEC_P57772_442_LDADIHTNTCR (UniProt P57772)”: the “probe-labelled cysteine peptide fold change” value is -0.0441.

With “EHMT1_Q9H9B1_954_ENRYDCVVLFLSR (UniProt Q9H9B1)”, the “probe-labelled cysteine peptide fold change” value worked out at 0.222.

In the case of “EEF1G_P26641_194_WFLTCINQPQFR (UniProt P26641)”, the “probe-labelled cysteine peptide fold change” value was 0.00592.

“EFL1_Q7Z2Z2_23_NICVLAHVDHGK (UniProt Q7Z2Z2)”: the “probe-labelled cysteine peptide fold change” value was -0.0842.

Take “EIF2S2_P20042_226_KTSFVNFTDICK (UniProt P20042)”: the “probe-labelled cysteine peptide fold change” value is -0.0977.
